Tested on: MCF-7 (breast cancer) cells
Assay: Cytotoxicity against MCF-7 cells, resazurin fluorescent method
Type: cell-based
Details: Homo sapiens, MCF7

CC/C(=C(\c1ccccc1)c1ccc(OCCN(C)C)cc1)c1ccccc1 [tamoxifen, reference compound]
IC50: 36 µM

Source: paper PMC12547551, “Lanostane–Meroterpene Conjugates with Unusual Aryl Ether Linkage and a Lanostane Dimer from Artificially Cultivated Fruiting Bodies of Ganoderma cf. hochiminhense” (ACS Omega, 2025)
